# From PMC5031558
# Chains of the proteins cited; added tags and fusions are not shown. Lines headed by an entry give the natural chain unless they say otherwise; changes in a name come on top.
# UniProt Q9NQC7: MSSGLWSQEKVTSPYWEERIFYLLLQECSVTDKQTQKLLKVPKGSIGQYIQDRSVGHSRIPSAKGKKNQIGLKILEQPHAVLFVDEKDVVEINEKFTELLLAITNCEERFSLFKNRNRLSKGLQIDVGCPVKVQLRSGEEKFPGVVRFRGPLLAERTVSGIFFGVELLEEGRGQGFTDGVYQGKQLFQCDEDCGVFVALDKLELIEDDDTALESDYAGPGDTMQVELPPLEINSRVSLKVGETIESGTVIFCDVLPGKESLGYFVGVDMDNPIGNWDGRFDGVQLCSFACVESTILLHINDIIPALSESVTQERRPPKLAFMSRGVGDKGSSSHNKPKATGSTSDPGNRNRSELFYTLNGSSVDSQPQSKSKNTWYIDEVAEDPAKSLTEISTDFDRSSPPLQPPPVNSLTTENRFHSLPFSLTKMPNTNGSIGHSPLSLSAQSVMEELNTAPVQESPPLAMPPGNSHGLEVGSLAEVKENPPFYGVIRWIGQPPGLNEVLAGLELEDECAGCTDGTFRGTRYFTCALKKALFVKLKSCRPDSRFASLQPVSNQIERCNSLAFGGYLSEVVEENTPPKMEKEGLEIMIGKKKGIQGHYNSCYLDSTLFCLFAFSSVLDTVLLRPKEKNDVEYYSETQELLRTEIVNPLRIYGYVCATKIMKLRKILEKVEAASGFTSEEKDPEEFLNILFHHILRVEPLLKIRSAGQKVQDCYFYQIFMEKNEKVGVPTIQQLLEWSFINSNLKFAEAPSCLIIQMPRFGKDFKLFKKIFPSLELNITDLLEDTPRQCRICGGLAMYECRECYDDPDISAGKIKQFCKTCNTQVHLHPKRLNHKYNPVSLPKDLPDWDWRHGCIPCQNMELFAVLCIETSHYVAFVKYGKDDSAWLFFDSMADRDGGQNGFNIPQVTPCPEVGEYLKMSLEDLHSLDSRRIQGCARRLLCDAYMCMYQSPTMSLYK
# No constants are given. Whether binding was seen depends on the method and setting. A result given as binding can be weak or reduced; the word gives no strength.
# Molecular target: T1, SPATA2 PUB domain (aa 1–241) (UniProt Q9UM82)
# T1 sequence: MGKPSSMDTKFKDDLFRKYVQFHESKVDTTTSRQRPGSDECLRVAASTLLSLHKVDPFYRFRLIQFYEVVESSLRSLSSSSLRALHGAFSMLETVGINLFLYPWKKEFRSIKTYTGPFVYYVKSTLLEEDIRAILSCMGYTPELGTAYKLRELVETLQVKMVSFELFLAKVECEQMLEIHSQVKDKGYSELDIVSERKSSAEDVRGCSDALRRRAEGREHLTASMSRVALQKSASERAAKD
# Test: SPR; fraction of CYLD variant bound to SPATA2 PUB against varying CYLD concentrations; kinetic and equilibrium fits; both purified
substance,measurement,value
CYLD ΔB-box (purified USP domain without the B-box) (from UniProt Q9NQC7) (domain or fragment),binding,binds weakly
